Measurements reported in PubChem BioAssay AID1224830 (NIAID, 2016).
In all, the deposit lists about 18,000 reagents; this is a part drawn at random. About 2,900 of them (16%) were called active. 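Calls are made per well; low scores hint the gene aids the LPS response, high scores that it dampens it.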 Repeated entries: four replicate wells of each siRNA pool.

Aim: 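Regulators of TLR4 signalling towards TNF-alpha in macrophage-like cells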 (primary screen)
Cell system: human THP-1 monocytic leukaemia cells, TNF dual-luciferase reporter clone, PMA-differentiated to macrophage-like cells
Knock-down reagent: siRNA pool against human genes, 50 nM
Timing: LPS for 4 h, given about 3 days after siRNA transfection
Conditions: bacterial LPS (TLR4 ligand), 10 ng/ml
Detection: 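TNF firefly reporter luminescence divided by renilla, normalised to the plate median, then turned into a robust z-score for each replicate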
Reading the numbers: TNF reporter robust z-score: higher = stronger TNF reporter response to LPS
Hit rule: 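a well is active when its z-score exceeds 2.8 or falls below -1.5; control wells carry no call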

{"target": "POLR1F (GeneID 221830)", "TNF reporter robust z-score": -0.94, "Outcome": "inactive"}
{"target": "POLR1F (GeneID 221830)", "TNF reporter robust z-score": -1.3, "Outcome": "inactive"}
{"target": "POLR1F (GeneID 221830)", "TNF reporter robust z-score": -1.35, "Outcome": "inactive"}
{"target": "POLR1F (GeneID 221830)", "TNF reporter robust z-score": -0.78, "Outcome": "inactive"}
{"target": "DACH2 (GeneID 117154)", "TNF reporter robust z-score": -0.44, "Outcome": "inactive"}
{"target": "DACH2 (GeneID 117154)", "TNF reporter robust z-score": -0.69, "Outcome": "inactive"}
{"target": "DACH2 (GeneID 117154)", "TNF reporter robust z-score": -0.85, "Outcome": "inactive"}
{"target": "DACH2 (GeneID 117154)", "TNF reporter robust z-score": -0.21, "Outcome": "inactive"}
{"target": "SLC4A4 (GeneID 8671)", "TNF reporter robust z-score": -0.96, "Outcome": "inactive"}
{"target": "SLC4A4 (GeneID 8671)", "TNF reporter robust z-score": -0.72, "Outcome": "inactive"}
{"target": "SLC4A4 (GeneID 8671)", "TNF reporter robust z-score": -1.05, "Outcome": "inactive"}
{"target": "SLC4A4 (GeneID 8671)", "TNF reporter robust z-score": -0.47, "Outcome": "inactive"}
{"target": "CLTA (GeneID 1211)", "TNF reporter robust z-score": -1.04, "Outcome": "inactive"}
{"target": "CLTA (GeneID 1211)", "TNF reporter robust z-score": -1.07, "Outcome": "inactive"}
{"target": "CLTA (GeneID 1211)", "TNF reporter robust z-score": -1.05, "Outcome": "inactive"}
{"target": "CLTA (GeneID 1211)", "TNF reporter robust z-score": -1.08, "Outcome": "inactive"}
{"target": "FOSB (GeneID 2354)", "TNF reporter robust z-score": 0.31, "Outcome": "inactive"}
{"target": "FOSB (GeneID 2354)", "TNF reporter robust z-score": -0.17, "Outcome": "inactive"}
{"target": "FOSB (GeneID 2354)", "TNF reporter robust z-score": 0.43, "Outcome": "inactive"}
{"target": "FOSB (GeneID 2354)", "TNF reporter robust z-score": 0.75, "Outcome": "inactive"}
{"target": "XAGE1B (GeneID 653067)", "TNF reporter robust z-score": -0.2, "Outcome": "inactive"}
{"target": "XAGE1B (GeneID 653067)", "TNF reporter robust z-score": 0.68, "Outcome": "inactive"}
{"target": "XAGE1B (GeneID 653067)", "TNF reporter robust z-score": -0.46, "Outcome": "inactive"}
{"target": "XAGE1B (GeneID 653067)", "TNF reporter robust z-score": 1.48, "Outcome": "inactive"}
{"target": "SLC12A6 (GeneID 9990)", "TNF reporter robust z-score": 0.28, "Outcome": "inactive"}
{"target": "SLC12A6 (GeneID 9990)", "TNF reporter robust z-score": 0.22, "Outcome": "inactive"}
{"target": "SLC12A6 (GeneID 9990)", "TNF reporter robust z-score": 1.31, "Outcome": "inactive"}
{"target": "SLC12A6 (GeneID 9990)", "TNF reporter robust z-score": 1.2, "Outcome": "inactive"}
{"target": "RPS13 (GeneID 6207)", "TNF reporter robust z-score": -0.79, "Outcome": "inactive"}
{"target": "RPS13 (GeneID 6207)", "TNF reporter robust z-score": 1.17, "Outcome": "inactive"}
{"target": "RPS13 (GeneID 6207)", "TNF reporter robust z-score": 0.26, "Outcome": "inactive"}
{"target": "RPS13 (GeneID 6207)", "TNF reporter robust z-score": 0.77, "Outcome": "inactive"}
{"target": "MN1 (GeneID 4330)", "TNF reporter robust z-score": -0.68, "Outcome": "inactive"}
{"target": "MN1 (GeneID 4330)", "TNF reporter robust z-score": 0.23, "Outcome": "inactive"}
{"target": "MN1 (GeneID 4330)", "TNF reporter robust z-score": -0.63, "Outcome": "inactive"}
{"target": "MN1 (GeneID 4330)", "TNF reporter robust z-score": 0.92, "Outcome": "inactive"}
{"target": "PRKCG (GeneID 5582)", "TNF reporter robust z-score": -0.66, "Outcome": "inactive"}
{"target": "PRKCG (GeneID 5582)", "TNF reporter robust z-score": 0.76, "Outcome": "inactive"}
{"target": "PRKCG (GeneID 5582)", "TNF reporter robust z-score": -0.56, "Outcome": "inactive"}
{"target": "PRKCG (GeneID 5582)", "TNF reporter robust z-score": -0.54, "Outcome": "inactive"}
{"target": "ZIC1 (GeneID 7545)", "TNF reporter robust z-score": 0.72, "Outcome": "inactive"}
{"target": "ZIC1 (GeneID 7545)", "TNF reporter robust z-score": -0.12, "Outcome": "inactive"}
{"target": "ZIC1 (GeneID 7545)", "TNF reporter robust z-score": -0.53, "Outcome": "inactive"}
{"target": "ZIC1 (GeneID 7545)", "TNF reporter robust z-score": -0.03, "Outcome": "inactive"}
{"target": "SNAI1 (GeneID 6615)", "TNF reporter robust z-score": -1.32, "Outcome": "inactive"}
{"target": "SNAI1 (GeneID 6615)", "TNF reporter robust z-score": -0.49, "Outcome": "inactive"}
{"target": "SNAI1 (GeneID 6615)", "TNF reporter robust z-score": -0.77, "Outcome": "inactive"}
{"target": "SNAI1 (GeneID 6615)", "TNF reporter robust z-score": -0.11, "Outcome": "inactive"}
{"target": "TEX35 (GeneID 84066)", "TNF reporter robust z-score": -0.66, "Outcome": "inactive"}
{"target": "TEX35 (GeneID 84066)", "TNF reporter robust z-score": -0.26, "Outcome": "inactive"}
{"target": "TEX35 (GeneID 84066)", "TNF reporter robust z-score": -1.28, "Outcome": "inactive"}
{"target": "TEX35 (GeneID 84066)", "TNF reporter robust z-score": -0.35, "Outcome": "inactive"}
{"target": "CXCL17 (GeneID 284340)", "TNF reporter robust z-score": 0.03, "Outcome": "inactive"}
{"target": "CXCL17 (GeneID 284340)", "TNF reporter robust z-score": -1.27, "Outcome": "inactive"}
{"target": "CXCL17 (GeneID 284340)", "TNF reporter robust z-score": -0.6, "Outcome": "inactive"}
{"target": "CXCL17 (GeneID 284340)", "TNF reporter robust z-score": -0.33, "Outcome": "inactive"}
{"target": "STN1 (GeneID 79991)", "TNF reporter robust z-score": -0.79, "Outcome": "inactive"}
{"target": "STN1 (GeneID 79991)", "TNF reporter robust z-score": -1.45, "Outcome": "inactive"}
{"target": "STN1 (GeneID 79991)", "TNF reporter robust z-score": -1.13, "Outcome": "inactive"}
{"target": "STN1 (GeneID 79991)", "TNF reporter robust z-score": -0.14, "Outcome": "inactive"}
